Data as given in PubChem BioAssay AID1508597 (Cure First, 2020).
The whole screen tested about 2,100 reagents; below is an unselected part. 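Calls flag viability under 80% in either arm, not effects specific to rucaparib; the reference for percent is not stated.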 Not stated in the record: the 100% reference.

- Screen: 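Genes whose silencing sensitises or protects ovarian cancer cells against rucaparib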 (primary screen)
- System: human ovarian carcinoma lines grown from tumours: OCI-P5x (papillary serous) and OCI-C5x (clear cell)
- Knock-down reagent: siRNA pool against human genes, 1.25 pmol siRNA per well
- Time to read-out: 72 h or 96 h, depending on the cell culture
- Treatment: rucaparib 20 µM (about IC30) or vehicle, present until read-out
- Read-out: 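ATP luminescence measured at 72 or 96 h according to the culture, then normalised and expressed as percent viability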
- Reading the numbers: viability, normalised: higher = more viable cells remaining
- Call rule: 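a well counts as a hit if its normalised viability is under 80 percent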
- Meaning of the calls: active = viability under 80%; inactive = viability 80% or more

With GJA10, rucaparib or vehicle Rucaparib, cell line OCI-C5x (clear cell), technical replicate 1, the entry reads viability, normalised (%) = 53.9; active.
GJA10, rucaparib or vehicle Rucaparib, cell line OCI-C5x (clear cell), technical replicate 2 scored viability, normalised (%) = 41.8; active.
For GJA10, rucaparib or vehicle Rucaparib, cell line OCI-C5x (clear cell), technical replicate 3, the entry reads viability, normalised (%) = 57.5; active.
GJA10, rucaparib or vehicle Rucaparib, cell line OCI-P5x (serous), technical replicate 1 gave viability, normalised (%) = 67; active.
GJA10, rucaparib or vehicle Rucaparib, cell line OCI-P5x (serous), technical replicate 2 gave viability, normalised (%) = 61.8; active.
With GJA10, rucaparib or vehicle Rucaparib, cell line OCI-P5x (serous), technical replicate 3, the entry reads viability, normalised (%) = 53.7; active.
With GJA10, rucaparib or vehicle Vehicle, cell line OCI-C5x (clear cell), technical replicate 1, the values are viability, normalised (%) = 43.3; active.
GJA10, rucaparib or vehicle Vehicle, cell line OCI-C5x (clear cell), technical replicate 2 gave viability, normalised (%) = 51.2; active.
GJA10, rucaparib or vehicle Vehicle, cell line OCI-C5x (clear cell), technical replicate 3 showed viability, normalised (%) = 45.6; active.
With GJA10, rucaparib or vehicle Vehicle, cell line OCI-P5x (serous), technical replicate 1, the values are viability, normalised (%) = 37.7; active.
GJA10, rucaparib or vehicle Vehicle, cell line OCI-P5x (serous), technical replicate 2 showed viability, normalised (%) = 71.4; active.
GJA10, rucaparib or vehicle Vehicle, cell line OCI-P5x (serous), technical replicate 3 scored viability, normalised (%) = 117; inactive.
With HMG20B, rucaparib or vehicle Rucaparib, cell line OCI-C5x (clear cell), technical replicate 1, the entry reads viability, normalised (%) = 54.9; active.
For HMG20B, rucaparib or vehicle Rucaparib, cell line OCI-C5x (clear cell), technical replicate 2, the entry reads viability, normalised (%) = 42.3; active.
HMG20B, rucaparib or vehicle Rucaparib, cell line OCI-C5x (clear cell), technical replicate 3 scored viability, normalised (%) = 48.7; active.
HMG20B, rucaparib or vehicle Rucaparib, cell line OCI-P5x (serous), technical replicate 1 scored viability, normalised (%) = 65.8; active.
With HMG20B, rucaparib or vehicle Rucaparib, cell line OCI-P5x (serous), technical replicate 2 the deposit lists viability, normalised (%) = 84.3; inactive.
HMG20B, rucaparib or vehicle Rucaparib, cell line OCI-P5x (serous), technical replicate 3 showed viability, normalised (%) = 63.9; active.
HMG20B, rucaparib or vehicle Vehicle, cell line OCI-C5x (clear cell), technical replicate 1 showed viability, normalised (%) = 52.6; active.
With HMG20B, rucaparib or vehicle Vehicle, cell line OCI-C5x (clear cell), technical replicate 2, the entry reads viability, normalised (%) = 44.6; active.
HMG20B, rucaparib or vehicle Vehicle, cell line OCI-C5x (clear cell), technical replicate 3 showed viability, normalised (%) = 65.2; active.
HMG20B, rucaparib or vehicle Vehicle, cell line OCI-P5x (serous), technical replicate 1 gave viability, normalised (%) = 78.7; active.
HMG20B, rucaparib or vehicle Vehicle, cell line OCI-P5x (serous), technical replicate 2 scored viability, normalised (%) = 94.4; inactive.
HMG20B, rucaparib or vehicle Vehicle, cell line OCI-P5x (serous), technical replicate 3 gave viability, normalised (%) = 173; inactive.
